Data from PubChem BioAssay AID2685 (National Center for Advancing Translational Sciences (NCATS), 2010).
The other results are listed elsewhere or left out. Shown are side measurements of this screen, not its main read-out; they come without a call. Compounds called inactive in the main read-out are mostly missing here. Potencies come from curve fits of mixed quality, noted in brackets.

Assay: qHTS Assay for Lipid Storage Modulators in Drosophila S3 Cells;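 on cell number change: cells counted by Cell Tracker Red CMTPX staining in the red channel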
Details: BODIPY lipid droplet fluorescence, 18-24 h; for cell number change: measured here: cell count max response, cells fed with added oleic acid
In short: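 Drosophila S3 cells loaded with oleic acid (400 uM, as added) and compounds at several concentrations; lipid droplets imaged by 488-nm laser-scanning cytometry, 500–530 nm intensity and object ratio to cell channel. Percent activity normalized to 20 uM Triacsin C.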

[1] = measured here: lipid fluorescence (Fed channel) AC50, cells fed with added oleic acid
[2] = measured here: cell number channel AC50, cells fed with added oleic acid

SMILES | cell number change [%] | AC50 [1] | AC50 [2]
Cc1cccc(N2CCN(C(=O)Cc3c(C(=O)O)[nH]c4ccc(Cl)cc34)CC2)c1C | -16.2 | 18.4 µM [falling, single point] | –
COc1ccccc1NC(=S)N=Nc1c(O)[nH]c2ccc(Br)cc12 | -8.35 | 0.0058 µM [falling, full curve, poor fit] | –
COc1ccc2c3c(c(=O)oc2c1OCC(=O)O)CCCC3 | – | 0.82 µM [falling, full curve, poor fit] | –
N#CC1=C(N)N(c2ccccc2C#N)C2=C(C(=O)CCC2)C1c1ccsc1 (stereo unspecified) | -21.4 | 0.92 µM [rising, full curve] | –
Cc1ccc2c(CN3CCN(CCO)CC3)cc(=O)oc2c1C | -19.2 | 20.6 µM [falling, partial curve] | 0.116 µM [falling, single point]
O=C1C(=O)N(Cc2cccnc2)C(c2cccc(O)c2)/C1=C(\O)c1ccc2c(c1)OCCO2 (stereo unspecified) | 9.68 | 0.731 µM [falling, full curve, poor fit] | –
Cc1cc(C)n2nc(C(=O)NCc3ccccc3)nc2n1 | – | 0.58 µM [rising, single point] | –
O=C(O)c1sccc1Oc1ccc(F)cc1[N+](=O)[O-] | 7.23 | 18.4 µM [falling, single point] | –
Cc1cccc2sc(N(CCCN(C)C)C(=O)c3ccc(Cl)s3)nc12 | -5.39 | 0.206 µM [falling, full curve, poor fit] | 0.461 µM [falling, single point]
CCCCN1C[C@H](C)[C@@H](CC(=O)NCc2ccccc2)C1=O | 26.3 | 29.1 µM [rising, single point] | –
CC(C)C(=O)Nc1ccc2nn(-c3ccc(F)cc3)nc2c1 | 1.54 | 29.1 µM [falling, single point] | –
COc1ccc(CC(=O)OCC(=O)NC(=O)NC(C)C)cc1 | -82.3 | 1.46 µM [falling, full curve, poor fit] | 25.9 µM [falling, partial curve]
Cc1nn(-c2ccccc2)c(C)c1C(=O)OCC(=O)Nc1cccc(S(N)(=O)=O)c1 | 0.389 | 6.51 µM [falling, single point] | –
Cc1oc(-c2cccs2)nc1CN1CC[C@@](O)(c2ccccc2)[C@H]2CCCC[C@@H]21 | -3.32 | 0.82 µM [falling, full curve, poor fit] | –
COc1ccc(-c2nc(-c3ccncc3)no2)c(OC)c1 | 5.03 | – | –
O=C(O)C1CCCCN1C(=O)c1cc2c(s1)CCCCC2 (stereo unspecified) | -14.8 | 0.13 µM [falling, full curve, poor fit] | 0.103 µM [falling, full curve, poor fit]
CCC(=O)N1CCCc2cc(S(=O)(=O)N3CCN(c4ccccn4)CC3)ccc21 | 3.79 | 11.6 µM [rising, partial curve] | –
S=c1[nH]nc(COc2ccccc2)n1/N=C/C=C/c1ccccc1 | -44.3 | 13 µM [falling, partial curve] | 20.6 µM [falling, single point]
O=C(NC1CCCCC1)C1CCN(c2ncccn2)CC1 | -10.3 | – | –
COc1ccc(-c2noc(N3CCC(C(=O)Nc4cc(OC)c(OC)c(OC)c4)CC3)n2)cc1 | – | 6.51 µM [rising, single point] | –
CCCCN(C)C/C(O)=C(\C#N)c1nc(-c2ccccc2)cs1 | -15.6 | 6.51 µM [falling, single point] | 0.0058 µM [falling, full curve, poor fit]
COc1cccc(CNC(=O)CCc2nnc(C3CCCCC3)o2)c1 | -18.6 | 1.64 µM [falling, full curve, poor fit] | –
O=C(Nc1cccc(Br)c1)c1cc(S(=O)(=O)N2CCOCC2)cs1 | – | 29.1 µM [falling, single point] | 2.31 µM [rising, partial curve]
CCc1cc2c(cc3c(=O)n(CC(=O)NCCCN4CC(C)CC(C)C4)ncn32)s1 (stereo unspecified) | -60.8 | 7.31 µM [falling, partial curve, poor fit] | 6.51 µM [falling, partial curve, poor fit]
COC(=O)C1(C)NC(c2cccc(C)c2)C2C(=O)N(c3ccc(F)cc3)C(=O)C21 (stereo unspecified) | 20.7 | 0.146 µM [rising, full curve, poor fit] | 0.00517 µM [rising, full curve, poor fit]
COc1ccc(CCN2CCCC(CN(C)C(=O)c3ccoc3C)C2)cc1 (stereo unspecified) | 51.1 | 5.17 µM [rising, full curve] | 20.6 µM [rising, partial curve, poor fit]
Cc1c(NS(=O)(=O)c2ccc3c(c2)NC(=O)CC(=O)N3)cccc1[N+](=O)[O-] | -11.8 | – | –
Cc1cc(C)c(S(C)(=O)=O)c(Oc2cccc(Cl)c2)n1 | 39 | – | –

Looked up above.
`Cc1cccc2sc(N(CCCN(C)C)C(=O)c3ccc(Cl)s3)nc12` – cell number change [%]: -5.39
`CCc1cc2c(cc3c(=O)n(CC(=O)NCCCN4CC(C)CC(C)C4)ncn32)s1` (stereo unspecified) – AC50 [2]: 6.51 µM [falling, partial curve, poor fit]
`CC(C)C(=O)Nc1ccc2nn(-c3ccc(F)cc3)nc2c1` – AC50 [1]: 29.1 µM [falling, single point]

Two compounds drawn at random from those above:
SMILES | cell number change [%] | AC50 [1] | AC50 [2]
CCCCN(C)C/C(O)=C(\C#N)c1nc(-c2ccccc2)cs1 | -15.6 | 6.51 µM [falling, single point] | 0.0058 µM [falling, full curve, poor fit]
Cc1ccc2c(CN3CCN(CCO)CC3)cc(=O)oc2c1C | -19.2 | 20.6 µM [falling, partial curve] | 0.116 µM [falling, single point]

Carrying on:

SMILES | cell number change [%] | AC50 [1] | AC50 [2]
O=C(Nc1cccc(Cl)c1)c1ccc(S(=O)(=O)NCC2CCCO2)cc1 (stereo unspecified) | 18.4 | – | –
COc1ccc(S(=O)(=O)N2CCOCC2)cc1NC(=O)CC1CC2CCC1C2 (stereo unspecified) | 21.1 | 1.64 µM [rising, full curve] | –
Cc1cccc2c(C(=O)Nn3cnnc3)cc(-c3ccccc3Cl)nc12 | 121 | 29.1 µM [rising, single point] | 29.1 µM [rising, single point]
Cc1cc(NC(=O)CSc2nnc(-c3cccnc3)n2C)no1 | 35 | – | 14.6 µM [rising, single point]
CCc1cc(=O)oc2c(C)c(OCC(=O)NCCCn3ccnc3)ccc12 | 23.5 | – | 0.0731 µM [rising, full curve, poor fit]
COc1nnc(-c2ccc(N3CCCCC3)c(NC(C)=O)c2)c2ccccc12 | – | 14.6 µM [rising, partial curve] | –
CC1=CC(c2ccc(Cl)cc2)n2nc(NS(=O)(=O)c3ccc(C)cc3)nc2N1 (stereo unspecified) | 9.57 | 2.31 µM [rising, single point] | –
O=C(Nc1ccc(Oc2cccnc2)cc1)c1ccc([N+](=O)[O-])cc1 | 74.3 | 0.58 µM [rising, single point] | 29.1 µM [rising, single point]
COc1cccc(C(=O)c2c[nH]c(C(=O)NCCCN(C)C)c2)c1 | 34 | – | –
CC(C)c1onc(C(=O)NCc2cccs2)c1[N+](=O)[O-] | -36.5 | 23.1 µM [falling, single point] | 20.6 µM [falling, single point]
Oc1ccc(Cl)cc1CNc1ccc(Br)cn1 | -74.4 | 0.0651 µM [falling, full curve] | 16.4 µM [falling, partial curve]
CCCN(CCC)S(=O)(=O)c1ccc(C(=O)N2CCOCC2)cc1 | 6.06 | – | 1.3 µM [falling, full curve]
Cc1nccc(-c2cccc(N/N=C(\C#N)C(=O)c3ccccc3)c2)n1 | 37.3 | 29.1 µM [rising, single point] | 29.1 µM [rising, single point]
O=C(CSc1ccccc1)Nc1ccccc1C(=O)O | 18.5 | 16.4 µM [falling, partial curve] | 0.731 µM [falling, full curve, poor fit]
COc1cc2cc(C(=O)N3CCN(Cc4ccc5c(c4)OCO5)CC3)[nH]c2cc1OC | -6.12 | 16.4 µM [rising, single point] | –
Cn1nc(C(F)(F)F)c(-c2ccc(Br)cc2)c1NC(=O)c1nccnc1C(=O)O | 7.2 | 29.1 µM [falling, single point] | –
O=C(NCc1ccccn1)c1cccc(S(=O)(=O)Nc2ccccc2Cl)c1 | 0.13 | – | –
COc1ccc(NS(=O)(=O)c2ccc(C)c(C(=O)O)c2)cc1 | – | 18.4 µM [falling, partial curve] | –
CCc1ccccc1NC(=O)C1NC(=O)CC1c1ccccc1 (stereo unspecified) | 10.3 | – | 0.517 µM [rising, partial curve]
CC(=O)c1ccc(Nc2nc(NCCO)nc(OC(C(F)(F)F)C(F)(F)F)n2)cc1 | -32.2 | 29.1 µM [falling, single point] | 29.1 µM [falling, single point]
COC(=O)CCSCC(=O)Nc1ccc(S(=O)(=O)N2CCOCC2)cc1OC | -21.2 | 6.51 µM [rising, single point] | 0.731 µM [falling, single point]
CC1C/C(=C/c2ccco2)C(=O)/C(=C/c2ccco2)C1 (stereo unspecified) | 9.31 | 32.6 µM [falling, partial curve] | –
O=C(c1cccs1)N1CCCN(c2ncnc3scc(-c4ccccc4)c23)CC1 | -7.27 | – | 1.84 µM [falling, partial curve]
O=C(O)c1cc2n(n1)C(C(F)(F)F)CC(c1ccccc1)N2 (stereo unspecified) | 8.67 | – | –
COc1ccc(C=C(C(C)=O)C(C)=O)cc1OC | -35.6 | 9.2 µM [falling, partial curve, poor fit] | 8.2 µM [falling, partial curve]
Cc1ccc(S(=O)(=O)Oc2ccccc2/C=N/N=C(N)N)cc1 | -59.6 | 3.66 µM [falling, partial curve] | 29.1 µM [falling, partial curve, poor fit]
COC(=O)c1sccc1NC(=O)Nc1ccc(C)cc1C | -54 | – | 20.6 µM [falling, single point]
